{"source": "PubChem BioAssay AID504808 (Drosophila RNAi Screening Center, 2011)", "test": "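Genes whose loss lifts activity of an E2F-responsive reporter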 (primary screen)", "cells": "Drosophila S2 cells", "knock-down reagent": "long dsRNA against Drosophila genes", "read-out": "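Dual luciferase plate measurements; E2F-specific signal taken as firefly over Renilla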", "scale": "E2F firefly: higher = more E2F reporter activity; Renilla normaliser: higher = more normaliser reporter signal", "active means": "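a knock-down counted as active when the firefly/Renilla E2F signal rose above 50%, a threshold chosen arbitrarily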", "note": "In all, the deposit lists about 21,000 reagents; below is a random part of those that have a named target and a result. In the full data, 18 (0.084%) are marked active. 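Raw counts without plate normalisation, one of two replicates; the ratio scores behind the calls were not deposited.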 The record does not give: the amount of reagent, the time to read-out."}
{"target": "elfless", "amplicon": "DRSC02451", "E2F firefly, rep 1": 1.07e5, "Renilla normaliser, rep 1": 4279, "Outcome": "inactive"}
{"target": "amx (almondex)", "amplicon": "DRSC18736", "E2F firefly, rep 1": 95818, "Renilla normaliser, rep 1": 4987, "Outcome": "inactive"}
{"target": "Ir94e (Ionotropic receptor 94e)", "amplicon": "DRSC15229", "E2F firefly, rep 1": 1.09e5, "Renilla normaliser, rep 1": 6087, "Outcome": "inactive"}
{"target": "CG7386", "amplicon": "DRSC10832", "E2F firefly, rep 1": 99108, "Renilla normaliser, rep 1": 4155, "Outcome": "inactive"}
{"target": "CG15909", "amplicon": "DRSC04977", "E2F firefly, rep 1": 92255, "Renilla normaliser, rep 1": 4137, "Outcome": "inactive"}
{"target": "CG1698", "amplicon": "DRSC06640", "E2F firefly, rep 1": 2891, "Renilla normaliser, rep 1": 179, "Outcome": "inactive"}
{"target": "Golgin84 (Golgin-84)", "amplicon": "DRSC15269", "E2F firefly, rep 1": 1.22e5, "Renilla normaliser, rep 1": 6815, "Outcome": "inactive"}
{"target": "viaf (viral IAP-associated factor)", "amplicon": "DRSC10326", "E2F firefly, rep 1": 74910, "Renilla normaliser, rep 1": 3477, "Outcome": "inactive"}
{"target": "CG32532", "amplicon": "DRSC19556", "E2F firefly, rep 1": 1.35e5, "Renilla normaliser, rep 1": 6963, "Outcome": "inactive"}
{"target": "CG32532", "amplicon": "DRSC19557", "E2F firefly, rep 1": 1.33e5, "Renilla normaliser, rep 1": 6419, "Outcome": "inactive"}
{"target": "CG32532", "amplicon": "DRSC19558", "E2F firefly, rep 1": 1.33e5, "Renilla normaliser, rep 1": 6948, "Outcome": "inactive"}
{"target": "pasi2 (pasiflora 2)", "amplicon": "DRSC16380", "E2F firefly, rep 1": 1.40e5, "Renilla normaliser, rep 1": 8318, "Outcome": "inactive"}
{"target": "Atg18b (Autophagy-related 18b)", "amplicon": "DRSC03108", "E2F firefly, rep 1": 74608, "Renilla normaliser, rep 1": 3283, "Outcome": "inactive"}
{"target": "Etl1", "amplicon": "DRSC02911", "E2F firefly, rep 1": 89464, "Renilla normaliser, rep 1": 3831, "Outcome": "inactive"}
{"target": "Tig (Tiggrin)", "amplicon": "DRSC03456", "E2F firefly, rep 1": 1.40e5, "Renilla normaliser, rep 1": 5502, "Outcome": "inactive"}
{"target": "CG17724", "amplicon": "DRSC06687", "E2F firefly, rep 1": 3002, "Renilla normaliser, rep 1": 181, "Outcome": "inactive"}
{"target": "CG13708", "amplicon": "DRSC08317", "E2F firefly, rep 1": 85285, "Renilla normaliser, rep 1": 4184, "Outcome": "inactive"}
{"target": "CG16976 (retired record)", "amplicon": "DRSC08262", "E2F firefly, rep 1": 77669, "Renilla normaliser, rep 1": 3188, "Outcome": "inactive"}
{"target": "CG16976 (retired record)", "amplicon": "DRSC08499", "E2F firefly, rep 1": 96268, "Renilla normaliser, rep 1": 4207, "Outcome": "inactive"}
